From EP0626016B1, “[…] […]” (BRITISH TECHNOLOGY GROUP LIMITED, priority 1992, dated 1993)
Some results were stated once for a whole list of compounds, not compound by compound.

What was measured:
HRP Type VIA [1] = biological target: T1, HRP Type VIA (Armoracia rusticana, UniProt P00433); settings: result in words; for light output: Y in column (b) as well as Y in column (c); for increasing the signal:background ratio of a chemiluminescent reaction: by over 25% at at least one concentration
T1 sequence (P00433 31-338): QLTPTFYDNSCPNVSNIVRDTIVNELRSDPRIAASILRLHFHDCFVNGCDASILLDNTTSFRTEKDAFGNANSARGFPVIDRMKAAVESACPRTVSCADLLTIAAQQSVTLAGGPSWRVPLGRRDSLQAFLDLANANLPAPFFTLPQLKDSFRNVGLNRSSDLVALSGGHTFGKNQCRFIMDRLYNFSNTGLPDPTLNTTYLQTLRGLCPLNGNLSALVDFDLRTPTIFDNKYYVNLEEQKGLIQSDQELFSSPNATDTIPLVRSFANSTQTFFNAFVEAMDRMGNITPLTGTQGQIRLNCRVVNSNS

HRP Type VIA [2] = biological target: T1, HRP Type VIA; assay: Effect of organoboron compounds on the luminol-hydrogen peroxide-HRP chemiluminescent reaction (Example 2); type: biochemical, horseradish; parameters: purchased Sigma Chemical Co; settings: result in words
Description: The stock solution of HRP Type VIA (1mg/ml) and luminol-hydrogen peroxide reagent were prepared as described previously. Luminol-hydrogen peroxide (100µl, 1:10 dilution) was mixed with either 10µl of HRP (1:50,000 dilution) or, 10µl of Tris buffer (0.1mol/l, pH 8.6). […] A control without any test compound was run in parallel.
The control consisted of buffer in place of the compound under test as an enhancer. […]

SMILES	light output (HRP Type VIA [1])	increasing the signal:background ratio of a chemiluminescent reaction (HRP Type VIA [1])	signal to background ratio as compared to their control values (HRP Type VIA [2])
O=[N+]([O-])c1cc(B(O)O)ccc1Cl [Compound 1021, 4-chloro-3-nitrophenylboronic acid]	also increase the light output	of use in increasing the signal:background ratio	–
OB(O)c1ccc2cc(O)ccc2c1 [Compound 1006, 6-hydroxy-2-naphthaleneboronic acid]	–	of use in increasing the signal:background ratio	–
OB(O)c1ccc(Cl)cc1Cl [2,4-dichlorophenylboronic acid]	–	–	neither increased the light output or the signal: background ratio
COc1ccc(Br)cc1B(O)O [Compound 1003, 5-bromo-2-methoxybenzeneboronic acid]	–	of use in increasing the signal:background ratio	–
Cc1ccccc1B(O)O [Compound 1009, 2-tolueneboronic acid]	–	of use in increasing the signal:background ratio	–
OB(O)c1cc(N=Nc2cccc(C(F)(F)F)c2)ccc1O [Compound 1005]	also increase the light output	of use in increasing the signal:background ratio	–
OB(O)c1cccc2ccccc12 [Compound 1002, 1-naphthaleneboronic acid]	–	of use in increasing the signal:background ratio	–
OB(O)c1ccc(Nc2ccc(Cl)cc2)cc1 [Compound 1033, 4-(4'-chloroanilino)phenylboronic acid]	also increase the light output	of use in increasing the signal:background ratio	–
OB(O)c1ccc(Oc2ccccc2)cc1 [Compound 1010, 4-(phenoxy)benzeneboronic acid]	–	of use in increasing the signal:background ratio	–
CCCCOB(OCCCC)c1ccc(Br)cc1 [Compound 1044, 4-bromophenyl-di-n-butoxyborane]	also increase the light output	of use in increasing the signal:background ratio	–
O=C(O)c1ccc(B(O)O)cc1[N+](=O)[O-] [Compound 1045, 4-carboxy-3-nitrophenylboronic acid]	–	of use in increasing the signal:background ratio	–
c1ccc(B2OCCCO2)cc1 [Compound 1012, 2-phenyl-1,3,2-dioxaborinane]	–	of use in increasing the signal:background ratio	–
OCC(CO)(CO)COB(O)O [Compound 1017, pentaerythritol borate]	–	of use in increasing the signal:background ratio	–
Cc1ccc(B(O)O)cc1 [Compound 1034, 4-methylphenylboronic acid]	–	of use in increasing the signal:background ratio	–
CC(C)COB(c1ccccc1)c1ccccc1 [Compound 1019, diphenylisobutoxyborane]	–	of use in increasing the signal:background ratio	–
OB(O)c1ccc(-c2ccc(B(O)O)cc2)cc1 [Compound 1037, 4,4'-bis(phenylboronic acid)]	also increase the light output	of use in increasing the signal:background ratio	–
CCCCOB(OCCCC)c1ccc(-c2ccc(Br)cc2)cc1 [Compound 1038, 4-(4'-bromophenyl)phenyl-di-n-butoxyborane]	also increase the light output	of use in increasing the signal:background ratio	–
OB(O)c1ccc(Cl)c(Cl)c1 [Compound 1024, 3,4-dichlorophenylboronic acid]	–	of use in increasing the signal:background ratio	–
Clc1ccc(OB(Oc2ccc(Cl)cc2)c2ccc(Cl)cc2)cc1 [Compound 1041, 4-chlorophenyl-di-(4'-chlorophenoxy)borane]	also increase the light output	of use in increasing the signal:background ratio	–
O=C(O)c1ccc(N=Nc2ccc(O)c(B(O)O)c2)cc1 [Compound 1018, 4-(3'-borono-4'-hydroxyphenylazo)benzoic acid]	–	of use in increasing the signal:background ratio	–
OB(O)c1cccc(Cl)c1Cl [Compound 1022, 2,3-dichlorophenylboronic acid]	–	of use in increasing the signal:background ratio	–
Nc1c(Cl)cc(Cl)c(B(O)O)c1Cl [Compound 1026, 3-amino-2,4,6-trichlorophenylboronic acid]	–	of use in increasing the signal:background ratio	–
